Laboratory results published in article PMC12230082.
These are yes or no findings as the source states them, for the method shown. Binding seen in cells or lysates may run through a third protein. Some entries that bind do so weakly or less than the wild type.

Target: BZIP63 (UniProt B9DGI8)
Experiment: split reporter; BiFC: nYFP and cYFP fusions transiently co-transformed into N. benthamiana leaves; YFP fluorescence seen 72 h after injection; in triplicate

binding: binds
B1: BZIP63 (protein, UniProt B9DGI8 1-314)
chain: MEKVFSDEEISGNHHWSVNGMTSLNRSASEWAFNRFIQESSAAADDGESTTACGVSVSSPPNVPVDSEEYRAFLKSKLNLACAAVAMKRGTFIKPQDTSGRSDNGGANESEQASLASSKATPMMSSAITSGSELSGDEEEADGETNMNPTNVKRVKRMLSNRESARRSRRRKQAHLSELETQVSQLRVENSKLMKGLTDVTQTFNDASVENRVLKANIETLRAKVKMAEETVKRLTGFNPMFHNMPQIVSTVSLPSETSNSPDTTSSQVTTPEIISSGNKGKALIGCKMNRTASMRRVESLEHLQKRIRSVGDQ
